These are yes or no findings as the source states them, for the method shown. Binding seen in cells or lysates may run through a third protein. A yes stands for co-enrichment or nearness to the bait. Other partners may have been found. Sequences can lack the tags named with a protein.
T1: Dhh1−GFP (S. cerevisiae (endogenous in BY4741-derived yeast)) (UniProt P39517)
T1 sequence: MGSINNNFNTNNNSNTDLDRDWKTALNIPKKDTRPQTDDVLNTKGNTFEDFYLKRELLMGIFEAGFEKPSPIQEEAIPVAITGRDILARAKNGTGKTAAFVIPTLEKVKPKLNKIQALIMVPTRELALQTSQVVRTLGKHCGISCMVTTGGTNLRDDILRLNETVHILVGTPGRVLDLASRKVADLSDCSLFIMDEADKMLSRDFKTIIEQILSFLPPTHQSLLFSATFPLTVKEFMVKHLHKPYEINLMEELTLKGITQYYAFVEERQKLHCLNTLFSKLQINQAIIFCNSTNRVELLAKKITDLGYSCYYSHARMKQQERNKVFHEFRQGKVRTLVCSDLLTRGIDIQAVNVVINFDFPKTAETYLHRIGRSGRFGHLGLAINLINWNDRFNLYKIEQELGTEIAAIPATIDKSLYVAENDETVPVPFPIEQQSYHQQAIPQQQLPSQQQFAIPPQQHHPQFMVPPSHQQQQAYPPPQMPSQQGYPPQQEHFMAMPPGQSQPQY

Chains of the proteins cited; added tags and fusions are not shown. Residues count along the entry.
UniProt P06103: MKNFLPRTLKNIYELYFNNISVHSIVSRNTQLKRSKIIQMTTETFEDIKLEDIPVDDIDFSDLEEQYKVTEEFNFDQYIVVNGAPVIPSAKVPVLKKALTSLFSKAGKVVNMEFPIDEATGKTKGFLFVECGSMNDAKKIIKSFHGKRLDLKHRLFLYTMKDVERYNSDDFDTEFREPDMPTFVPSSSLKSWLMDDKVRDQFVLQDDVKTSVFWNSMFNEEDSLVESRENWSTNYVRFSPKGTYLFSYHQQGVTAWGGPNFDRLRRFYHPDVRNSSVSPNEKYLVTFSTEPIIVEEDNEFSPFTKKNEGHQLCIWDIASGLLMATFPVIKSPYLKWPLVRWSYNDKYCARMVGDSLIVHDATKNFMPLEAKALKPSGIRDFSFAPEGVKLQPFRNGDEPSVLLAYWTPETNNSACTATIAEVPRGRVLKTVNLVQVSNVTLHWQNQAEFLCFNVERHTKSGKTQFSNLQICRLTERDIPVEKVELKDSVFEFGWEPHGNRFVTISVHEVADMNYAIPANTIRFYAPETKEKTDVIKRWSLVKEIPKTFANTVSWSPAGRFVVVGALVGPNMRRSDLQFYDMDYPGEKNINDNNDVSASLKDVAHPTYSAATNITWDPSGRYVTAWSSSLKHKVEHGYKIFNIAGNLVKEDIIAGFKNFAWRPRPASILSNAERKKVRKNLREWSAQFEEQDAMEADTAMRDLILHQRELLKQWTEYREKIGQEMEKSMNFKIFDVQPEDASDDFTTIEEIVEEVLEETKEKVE
UniProt P15180: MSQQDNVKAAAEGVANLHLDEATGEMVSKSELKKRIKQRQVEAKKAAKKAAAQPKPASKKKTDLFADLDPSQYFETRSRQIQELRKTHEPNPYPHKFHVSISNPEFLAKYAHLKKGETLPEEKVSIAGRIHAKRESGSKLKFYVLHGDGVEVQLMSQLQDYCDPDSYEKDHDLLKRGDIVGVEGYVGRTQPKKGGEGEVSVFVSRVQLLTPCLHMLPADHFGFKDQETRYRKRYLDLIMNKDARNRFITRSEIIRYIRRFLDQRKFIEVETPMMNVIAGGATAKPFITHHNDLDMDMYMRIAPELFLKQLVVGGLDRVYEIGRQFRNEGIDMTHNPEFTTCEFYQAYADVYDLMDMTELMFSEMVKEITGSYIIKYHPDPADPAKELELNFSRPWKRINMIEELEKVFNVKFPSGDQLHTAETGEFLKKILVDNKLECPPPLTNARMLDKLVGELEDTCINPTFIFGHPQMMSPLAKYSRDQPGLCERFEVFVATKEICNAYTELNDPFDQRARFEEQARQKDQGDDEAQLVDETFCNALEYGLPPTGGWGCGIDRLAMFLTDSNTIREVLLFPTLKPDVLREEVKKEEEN
UniProt P05453: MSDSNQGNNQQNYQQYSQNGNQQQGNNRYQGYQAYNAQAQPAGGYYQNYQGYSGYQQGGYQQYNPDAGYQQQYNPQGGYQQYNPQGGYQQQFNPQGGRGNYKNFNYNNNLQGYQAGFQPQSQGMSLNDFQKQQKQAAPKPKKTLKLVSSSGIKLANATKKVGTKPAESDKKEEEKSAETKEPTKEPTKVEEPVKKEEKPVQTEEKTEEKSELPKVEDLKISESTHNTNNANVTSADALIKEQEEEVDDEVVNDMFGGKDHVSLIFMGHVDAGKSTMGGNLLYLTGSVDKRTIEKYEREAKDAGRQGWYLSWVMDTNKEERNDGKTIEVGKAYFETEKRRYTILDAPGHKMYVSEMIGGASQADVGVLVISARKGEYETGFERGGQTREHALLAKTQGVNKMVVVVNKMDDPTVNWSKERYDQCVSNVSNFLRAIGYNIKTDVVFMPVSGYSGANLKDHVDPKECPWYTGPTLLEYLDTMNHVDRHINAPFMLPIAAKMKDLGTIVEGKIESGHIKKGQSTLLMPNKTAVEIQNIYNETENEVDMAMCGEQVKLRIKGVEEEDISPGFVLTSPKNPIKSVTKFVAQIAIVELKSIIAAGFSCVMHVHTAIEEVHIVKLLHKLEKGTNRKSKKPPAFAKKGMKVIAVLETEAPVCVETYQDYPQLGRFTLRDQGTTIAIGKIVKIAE
UniProt P31539: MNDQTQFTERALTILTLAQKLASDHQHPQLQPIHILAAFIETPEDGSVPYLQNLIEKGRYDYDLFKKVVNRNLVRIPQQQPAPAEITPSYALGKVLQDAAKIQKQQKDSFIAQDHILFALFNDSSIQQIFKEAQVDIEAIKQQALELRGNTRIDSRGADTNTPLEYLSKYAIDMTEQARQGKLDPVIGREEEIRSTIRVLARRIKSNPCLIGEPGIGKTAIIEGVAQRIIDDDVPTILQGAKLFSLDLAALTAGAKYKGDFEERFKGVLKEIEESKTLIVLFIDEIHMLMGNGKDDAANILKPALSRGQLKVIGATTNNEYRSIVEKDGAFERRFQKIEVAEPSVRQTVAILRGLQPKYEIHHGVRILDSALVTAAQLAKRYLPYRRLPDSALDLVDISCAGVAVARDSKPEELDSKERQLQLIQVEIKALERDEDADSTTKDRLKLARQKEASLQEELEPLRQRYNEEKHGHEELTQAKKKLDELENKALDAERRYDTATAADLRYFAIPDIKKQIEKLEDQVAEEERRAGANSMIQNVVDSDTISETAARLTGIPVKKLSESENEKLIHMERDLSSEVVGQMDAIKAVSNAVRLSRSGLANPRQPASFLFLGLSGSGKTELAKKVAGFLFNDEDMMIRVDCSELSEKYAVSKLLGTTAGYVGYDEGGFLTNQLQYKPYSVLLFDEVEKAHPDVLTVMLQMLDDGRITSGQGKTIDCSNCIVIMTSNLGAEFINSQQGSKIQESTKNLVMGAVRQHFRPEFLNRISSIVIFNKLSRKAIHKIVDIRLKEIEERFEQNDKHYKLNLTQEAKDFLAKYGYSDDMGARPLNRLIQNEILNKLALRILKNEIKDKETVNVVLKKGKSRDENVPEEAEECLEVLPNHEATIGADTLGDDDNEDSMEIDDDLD
UniProt P38249: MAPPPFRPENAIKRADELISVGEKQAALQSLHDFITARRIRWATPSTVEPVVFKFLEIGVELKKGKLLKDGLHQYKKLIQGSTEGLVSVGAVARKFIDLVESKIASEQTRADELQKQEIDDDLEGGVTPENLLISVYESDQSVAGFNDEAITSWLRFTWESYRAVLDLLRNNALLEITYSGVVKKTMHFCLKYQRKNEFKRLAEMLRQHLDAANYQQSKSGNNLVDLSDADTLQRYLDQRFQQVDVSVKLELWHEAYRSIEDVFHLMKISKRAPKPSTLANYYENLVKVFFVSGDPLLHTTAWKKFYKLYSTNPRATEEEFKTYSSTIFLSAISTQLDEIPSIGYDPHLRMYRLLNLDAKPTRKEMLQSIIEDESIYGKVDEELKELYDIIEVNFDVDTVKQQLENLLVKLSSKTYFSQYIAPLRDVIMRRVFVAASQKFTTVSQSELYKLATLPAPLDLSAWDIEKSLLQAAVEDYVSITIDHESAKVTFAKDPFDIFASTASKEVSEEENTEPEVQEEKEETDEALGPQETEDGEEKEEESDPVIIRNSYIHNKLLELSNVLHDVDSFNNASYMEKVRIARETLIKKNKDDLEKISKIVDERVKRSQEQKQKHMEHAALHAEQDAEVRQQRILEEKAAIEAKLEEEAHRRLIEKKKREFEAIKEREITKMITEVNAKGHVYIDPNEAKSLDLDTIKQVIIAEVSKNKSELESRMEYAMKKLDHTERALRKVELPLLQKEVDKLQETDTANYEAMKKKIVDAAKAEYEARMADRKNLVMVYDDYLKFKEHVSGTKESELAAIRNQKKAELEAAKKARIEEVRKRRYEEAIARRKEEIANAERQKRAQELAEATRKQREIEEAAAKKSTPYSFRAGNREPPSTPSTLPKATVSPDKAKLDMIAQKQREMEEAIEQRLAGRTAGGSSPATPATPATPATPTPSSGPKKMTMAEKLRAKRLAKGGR
UniProt P07251, residues 36-545: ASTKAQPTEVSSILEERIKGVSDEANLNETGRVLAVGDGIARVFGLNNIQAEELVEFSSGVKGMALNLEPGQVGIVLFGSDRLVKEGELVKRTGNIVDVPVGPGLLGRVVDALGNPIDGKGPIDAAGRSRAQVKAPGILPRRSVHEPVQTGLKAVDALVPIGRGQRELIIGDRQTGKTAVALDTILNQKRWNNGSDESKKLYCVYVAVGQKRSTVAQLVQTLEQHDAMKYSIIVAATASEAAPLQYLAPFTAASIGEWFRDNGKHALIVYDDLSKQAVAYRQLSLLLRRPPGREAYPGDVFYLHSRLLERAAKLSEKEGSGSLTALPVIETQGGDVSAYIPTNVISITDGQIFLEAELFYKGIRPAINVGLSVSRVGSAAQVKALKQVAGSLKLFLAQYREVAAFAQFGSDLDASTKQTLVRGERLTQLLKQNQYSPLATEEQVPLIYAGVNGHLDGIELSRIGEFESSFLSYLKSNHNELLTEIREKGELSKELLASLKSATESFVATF
UniProt P00817: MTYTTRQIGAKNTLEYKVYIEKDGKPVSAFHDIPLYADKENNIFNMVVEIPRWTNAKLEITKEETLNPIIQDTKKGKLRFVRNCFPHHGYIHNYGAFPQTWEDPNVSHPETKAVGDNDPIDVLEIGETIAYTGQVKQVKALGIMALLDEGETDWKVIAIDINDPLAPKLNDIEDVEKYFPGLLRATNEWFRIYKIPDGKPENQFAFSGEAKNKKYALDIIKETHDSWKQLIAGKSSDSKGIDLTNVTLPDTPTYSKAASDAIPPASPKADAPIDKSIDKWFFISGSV
UniProt P04147: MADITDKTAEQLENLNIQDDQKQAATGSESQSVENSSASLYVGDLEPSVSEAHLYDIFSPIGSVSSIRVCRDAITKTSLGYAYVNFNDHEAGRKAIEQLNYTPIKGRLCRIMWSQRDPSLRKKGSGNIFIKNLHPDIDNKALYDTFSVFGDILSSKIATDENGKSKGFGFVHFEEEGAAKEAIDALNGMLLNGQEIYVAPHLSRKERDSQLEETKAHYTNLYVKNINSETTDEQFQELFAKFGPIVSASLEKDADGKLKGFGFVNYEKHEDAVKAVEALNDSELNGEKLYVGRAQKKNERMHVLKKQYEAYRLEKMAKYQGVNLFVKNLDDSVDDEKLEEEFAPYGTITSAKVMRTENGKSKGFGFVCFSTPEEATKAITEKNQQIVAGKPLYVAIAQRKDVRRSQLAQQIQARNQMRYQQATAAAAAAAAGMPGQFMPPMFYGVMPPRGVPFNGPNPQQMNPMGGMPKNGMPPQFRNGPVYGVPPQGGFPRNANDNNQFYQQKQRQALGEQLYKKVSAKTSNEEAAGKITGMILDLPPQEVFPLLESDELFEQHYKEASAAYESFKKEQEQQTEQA
UniProt P26784: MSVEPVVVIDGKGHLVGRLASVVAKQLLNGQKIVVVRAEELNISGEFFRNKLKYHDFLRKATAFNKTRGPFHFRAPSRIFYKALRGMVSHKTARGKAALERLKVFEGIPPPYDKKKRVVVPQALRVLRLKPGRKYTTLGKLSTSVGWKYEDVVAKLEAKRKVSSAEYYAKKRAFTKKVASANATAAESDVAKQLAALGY
UniProt P16140: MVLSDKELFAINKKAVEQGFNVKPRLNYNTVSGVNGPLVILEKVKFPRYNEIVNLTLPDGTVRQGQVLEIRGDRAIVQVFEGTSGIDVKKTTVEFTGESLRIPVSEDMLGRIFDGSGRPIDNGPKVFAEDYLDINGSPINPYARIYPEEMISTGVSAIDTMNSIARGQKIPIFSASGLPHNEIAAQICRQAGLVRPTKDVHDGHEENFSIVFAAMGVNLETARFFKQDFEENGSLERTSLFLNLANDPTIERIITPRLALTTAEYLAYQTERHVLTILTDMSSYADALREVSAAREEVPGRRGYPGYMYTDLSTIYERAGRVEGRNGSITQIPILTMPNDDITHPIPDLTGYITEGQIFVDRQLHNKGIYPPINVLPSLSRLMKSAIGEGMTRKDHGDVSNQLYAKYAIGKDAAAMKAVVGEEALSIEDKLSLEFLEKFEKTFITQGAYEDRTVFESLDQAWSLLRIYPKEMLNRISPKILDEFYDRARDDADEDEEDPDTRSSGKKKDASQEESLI
UniProt P20447: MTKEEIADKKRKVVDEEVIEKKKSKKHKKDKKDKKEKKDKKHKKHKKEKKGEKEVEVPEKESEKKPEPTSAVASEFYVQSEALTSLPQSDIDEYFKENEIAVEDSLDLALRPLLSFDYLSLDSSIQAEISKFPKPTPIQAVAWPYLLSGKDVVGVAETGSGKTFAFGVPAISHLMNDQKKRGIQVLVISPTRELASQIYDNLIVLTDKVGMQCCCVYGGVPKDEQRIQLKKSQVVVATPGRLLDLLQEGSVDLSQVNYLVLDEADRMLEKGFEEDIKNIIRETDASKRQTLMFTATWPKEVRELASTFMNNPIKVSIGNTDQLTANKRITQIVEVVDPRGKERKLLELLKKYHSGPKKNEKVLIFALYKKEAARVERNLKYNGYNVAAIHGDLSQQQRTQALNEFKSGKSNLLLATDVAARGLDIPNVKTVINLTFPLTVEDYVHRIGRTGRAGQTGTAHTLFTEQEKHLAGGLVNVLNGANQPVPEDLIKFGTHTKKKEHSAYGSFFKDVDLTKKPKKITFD


Target: T1, Dhh1−GFP (S. cerevisiae (endogenous in BY4741-derived yeast))
Assay: affinity purification with mass spectrometry; Dhh1−GFP captured by anti-GFP IgG cross-linked to Protein-G Dynabeads from cleared lysate of cryo-ground yeast; RB buffer (30 mM K-Hepes pH 7.4, 150 mM KCl, 2 mM MgCl2, 0.2% NP-40, 0.1% Tween-20, 1 mM DTT, RNase inhibitor), 30 min at 4°; five purifications (two +glucose YPD, three 30 min −glucose YEP); hits filtered by SAINT against CRAPome controls

Molecule | binding
Prt1 (from UniProt P06103 1-763) | binds
Krs1 (from UniProt P15180 1-591) | binds
Sup35 (from UniProt P05453 1-685) | binds
Hsp104 (from UniProt P31539 1-908) | binds
Rpg1 (from UniProt P38249 1-964) | binds
Pbp1 (from UniProt P53297 1-722) | binds
Ura2 (from UniProt P07259 1-2214) | binds
Atp1 (from UniProt P07251 36-545) | binds
Ipp1 (from UniProt P00817 1-287) | binds
Pab1 (from UniProt P04147 1-577) | binds
Fun12 (protein, UniProt P39730 1-1002) MAKKSKKNQQNYWDEEFEEDAAQNEEISATPTPNPESSAGADDTSREASASAEGAEAIEGDFMSTLKQSKKKQEKKVIEEKKDGKPILKSKKEKEKEKKEKEKQKKKEQAARKKAQQQAQKEKNKELNKQNVEKAAAEKAAAEKSQKSKGESDKPSASAKKPAKKVPAGLAALRRQLELKKQLEEQEKLEREEEERLEKEEEERLANEEKMKEEAKAAKKEKEKAKREKRKAEGKLLTRKQKEEKKLLERRRAALLSSGNVKVAGLAKKDGEENKPKKVVYSKKKKRTTQENASEAIKSDSKKDSEVVPDDELKESEDVLIDDWENLALGDDDEEGTNEETQESTASHENEDQNQGEEEEEGEEEEEEEEERAHVHEVAKSTPAATPAATPTPSSASPNKKDLRSPICCILGHVDTGKTKLLDKIRQTNVQGGEAGGITQQIGATYFPIDAIKAKTKVMAEYEKQTFDVPGLLVIDTPGHESFSNLRSRGSSLCNIAILVIDIMHGLEQQTIESIKLLRDRKAPFVVALNKIDRLYDWKAIPNNSFRDSFAKQSRAVQEEFQSRYSKIQLELAEQGLNSELYFQNKNMSKYVSIVPTSAVTGEGVPDLLWLLLELTQKRMSKQLMYLSHVEATILEVKVVEGFGTTIDVILSNGYLREGDRIVLCGMNGPIVTNIRALLTPQPLRELRLKSEYVHHKEVKAALGVKIAANDLEKAVSGSRLLVVGPEDDEDELMDDVMDDLTGLLDSVDTTGKGVVVQASTLGSLEALLDFLKDMKIPVMSIGLGPVYKRDVMKASTMLEKAPEYAVMLCFDVKVDKEAEQYAEQEGIKIFNADVIYHLFDSFTAYQEKLLEERRKDFLDYAIFPCVLQTLQIINKRGPMIIGVDVLEGTLRVGTPICAVKTDPTTKERQTLILGKVISLEINHQPVQEVKKGQTAAGVAVRLEDPSGQQPIWGRHVDENDTLYSLVSRRSIDTLKDKAFRDQVARSDWLLLKKLKVVFGIE | binds
Lsm4 (protein, UniProt P40070 1-187) MLPLYLLTNAKGQQMQIELKNGEIIQGILTNVDNWMNLTLSNVTEYSEESAINSEDNAESSKAVKLNEIYIRGTFIKFIKLQDNIIDKVKQQINSNNNSNSNGPGHKRYYNNRDSNNNRGNYNRRNNNNGNSNRRPYSQNRQYNNSNSSNINNSINSINSNNQNMNNGLGGSVQHHFNSSSPQKVEF | binds
Tif2 (protein, UniProt P10081 1-395) MSEGITDIEESQIQTNYDKVVYKFDDMELDENLLRGVFGYGFEEPSAIQQRAIMPIIEGHDVLAQAQSGTGKTGTFSIAALQRIDTSVKAPQALMLAPTRELALQIQKVVMALAFHMDIKVHACIGGTSFVEDAEGLRDAQIVVGTPGRVFDNIQRRRFRTDKIKMFILDEADEMLSSGFKEQIYQIFTLLPPTTQVVLLSATMPNDVLEVTTKFMRNPVRILVKKDELTLEGIKQFYVNVEEEEYKYECLTDLYDSISVTQAVIFCNTRRKVEELTTKLRNDKFTVSAIYSDLPQQERDTIMKEFRSGSSRILISTDLLARGIDVQQVSLVINYDLPANKENYIHRIGRGGRFGRKGVAINFVTNEDVGAMRELEKFYSTQIEELPSDIATLLN | binds
Lsm5 (protein, UniProt P40089 1-93) MSLPEILPLEVIDKTINQKVLIVLQSNREFEGTLVGFDDFVNVILEDAVEWLIDPEDESRNEKVMQHHGRMLLSGNNIAILVPGGKKTPTEAL | binds
Lsm7 (protein, UniProt P53905 1-115) MHQQHSKSENKPQQQRKKFEGPKREAILDLAKYKDSKIRVKLMGGKLVIGVLKGYDQLMNLVLDDTVEYMSNPDDENNTELISKNARKLGLTVIRGTILVSLSSAEGSDVLYMQK | binds
Pat1 (protein, UniProt P25644 1-796) MSFFGLENSGNARDGPLDFEESYKGYGEHELEENDYLNDETFGDNVQVGTDFDFGNPHSSGSSGNAIGGNGVGATARSYVAATAEGISGPRTDGTAAAGPLDLKPMESLWSTAPPPAMAPSPQSTMAPAPAPQQMAPLQPILSMQDLERQQRQMQQQFMNFHAMGHPQGLPQGPPQQQFPMQPASGQPGPSQFAPPPPPPGVNVNMNQMPMGPVQVPVQASPSPIGMSNTPSPGPVVGATKMPLQSGRRSKRDLSPEEQRRLQIRHAKVEKILKYSGLMTPRDKDFITRYQLSQIVTEDPYNEDFYFQVYKIIQRGGITSESNKGLIARAYLEHSGHRLGGRYKRTDIALQRMQSQVEKAVTVAKERPSKLKDQQAAAGNSSQDNKQANTVLGKISSTLNSKNPRRQLQIPRQQPSDPDALKDVTDSLTNVDLASSGSSSTGSSAAAVASKQRRRSSYAFNNGNGATNLNKSGGKKFILELIETVYEEILDLEANLRNGQQTDSTAMWEALHIDDSSYDVNPFISMLSFDKGIKIMPRIFNFLDKQQKLKILQKIFNELSHLQIIILSSYKTTPKPTLTQLKKVDLFQMIILKIIVSFLSNNSNFIEIMGLLLQLIRNNNVSFLTTSKIGLNLITILISRAALIKQDSSRSNILSSPEISTWNEIYDKLFTSLESKIQLIFPPREYNDHIMRLQNDKFMDEAYIWQFLASLALSGKLNHQRIIIDEVRDEIFATINEAETLQKKEKELSVLPQRSQELDTELKSIIYNKEKLYQDLNLFLNVMGLVYRDGEISELK | binds

The remaining lines, values ahead:

binding | Molecule
binds | Rpl16A (from UniProt P26784 1-199)
binds | Vma2 (from UniProt P16140 1-517)
binds | Dbp3 (from UniProt P20447 1-523)
binds | Xrn1 (from UniProt P22147 1-1528)
binds | Cdc48 (from UniProt P25694 1-835)
binds | Hrr25 (protein, UniProt P29295 1-494) MDLRVGRKFRIGRKIGSGSFGDIYHGTNLISGEEVAIKLESIRSRHPQLDYESRVYRYLSGGVGIPFIRWFGREGEYNAMVIDLLGPSLEDLFNYCHRRFSFKTVIMLALQMFCRIQYIHGRSFIHRDIKPDNFLMGVGRRGSTVHVIDFGLSKKYRDFNTHRHIPYRENKSLTGTARYASVNTHLGIEQSRRDDLESLGYVLIYFCKGSLPWQGLKATTKKQKYDRIMEKKLNVSVETLCSGLPLEFQEYMAYCKNLKFDEKPDYLFLARLFKDLSIKLEYHNDHLFDWTMLRYTKAMVEKQRDLLIEKGDLNANSNAASASNSTDNKSETFNKIKLLAMKKFPTHFHYYKNEDKHNPSPEEIKQQTILNNNAASSLPEELLNALDKGMENLRQQQPQQQVQSSQPQPQPQQLQQQPNGQRPNYYPEPLLQQQQRDSQEQQQQVPMATTRATQYPPQINSNNFNTNQASVPPQMRSNPQQPPQDKPAGQSIWL
binds | Lsm2 (protein, UniProt P38203 1-95) MLFFSFFKTLVDQEVVVELKNDIEIKGTLQSVDQFLNLKLDNISCTDEKKYPHLGSVRNIFIRGSTVRYVYLNKNMVDTNLLQDATRREVMTERK
binds | Lsm3 (protein, UniProt P57743 1-89) METPLDLLKLNLDERVYIKLRGARTLVGTLQAFDSHCNIVLSDAVETIYQLNNEELSESERRCEMVFIRGDTVTLISTPSEDDDGAVEI
binds | Lsm1 (protein, UniProt P47017 1-172) MSANSKDRNQSNQDAKRQQQNFPKKISEGEADLYLDQYNFTTTAAIVSSVDRKIFVLLRDGRMLFGVLRTFDQYANLILQDCVERIYFSEENKYAEEDRGIFMIRGENVVMLGEVDIDKEDQPLEAMERIPFKEAWLTKQKNDEKRFKEETHKGKKMARHGIVYDFHKSDMY
binds | Lsm6 (protein, UniProt Q06406 1-86) MSGKASTEGSVTTEFLSDIIGKTVNVKLASGLLYSGRLESIDGFMNVALSSATEHYESNNNKLLNKFNSDVFLRGTQVMYISEQKI
binds | Edc3 (protein, UniProt P39998 1-551) MSQFVGFGVQVELKDGKLIQGKIAKATSKGLTLNDVQFGDGGKSQAFKVRASRLKDLKVLTVASQSGKRKQQRQQQQQNDYNQNRGEHIDWQDDDVSKIKQQEDFDFQRNLGMFNKKDVFAQLKQNDDILPENRLQGHNRKQTQLQQNNYQNDELVIPDAKKDSWNKISSRNEQSTHQSQPQQDAQDDLVLEDDEHEYDVDDIDDPKYLPITQSLNITHLIHSATNSPSINDKTKGTVINDKDQVLAKLGQMIISQSRSNSTSLPAANKQTTIRSKNTKQNIPMATPVQLLEMESITSEFFSINSAGLLENFAVNASFFLKQKLGGRARLRLQNSNPEPLVVILASDSNRSGAKALALGRHLCQTGHIRVITLFTCSQNELQDSMVKKQTDIYKKCGGKIVNSVSSLESAMETLNSPVEIVIDAMQGYDCTLSDLAGTSEVIESRIKSMISWCNKQRGSTKVWSLDIPNGFDAGSGMPDIFFSDRIEATGIICSGWPLIAINNLIANLPSLEDAVLIDIGIPQGAYSQRTSLRKFQNCDLFVTDGSLLLDL
binds | Edc1 (protein, UniProt P53080 1-175) MSTDTMYFNSSRLLPSAGRNKTNNLIKQKTRNNRARGNAAKNANNNNYITDIPPPQTLPNGQKPNFGHSSNKKPSFNQKKHSPPSSPSSTTTLGKKNRQNNKETPRQNNKDDTRLLSQNLKNLLLNQKQSPHGSQGIIPMGCNGSAKKLSHSYAGSTFATNGPREAKNLPKPSFL

Source: PMC4632068
